The source of these data is US20140336113A1.

The chains behind the UniProt entries cited, without tags or fusion partners.
UniProt P52294: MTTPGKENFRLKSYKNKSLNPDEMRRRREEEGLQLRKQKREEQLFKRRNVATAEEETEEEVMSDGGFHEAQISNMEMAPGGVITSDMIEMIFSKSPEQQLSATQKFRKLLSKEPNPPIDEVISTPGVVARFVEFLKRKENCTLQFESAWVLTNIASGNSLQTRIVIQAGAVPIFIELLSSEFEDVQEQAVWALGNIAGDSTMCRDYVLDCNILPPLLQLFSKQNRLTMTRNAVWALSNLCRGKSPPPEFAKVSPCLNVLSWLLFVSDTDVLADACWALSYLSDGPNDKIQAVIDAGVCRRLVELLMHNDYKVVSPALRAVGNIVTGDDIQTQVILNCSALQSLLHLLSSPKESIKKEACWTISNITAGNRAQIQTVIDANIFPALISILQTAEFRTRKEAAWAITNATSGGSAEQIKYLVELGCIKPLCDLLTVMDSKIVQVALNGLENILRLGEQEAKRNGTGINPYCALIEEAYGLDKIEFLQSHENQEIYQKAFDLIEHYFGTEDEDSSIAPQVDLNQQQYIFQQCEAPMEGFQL
UniProt Q14974: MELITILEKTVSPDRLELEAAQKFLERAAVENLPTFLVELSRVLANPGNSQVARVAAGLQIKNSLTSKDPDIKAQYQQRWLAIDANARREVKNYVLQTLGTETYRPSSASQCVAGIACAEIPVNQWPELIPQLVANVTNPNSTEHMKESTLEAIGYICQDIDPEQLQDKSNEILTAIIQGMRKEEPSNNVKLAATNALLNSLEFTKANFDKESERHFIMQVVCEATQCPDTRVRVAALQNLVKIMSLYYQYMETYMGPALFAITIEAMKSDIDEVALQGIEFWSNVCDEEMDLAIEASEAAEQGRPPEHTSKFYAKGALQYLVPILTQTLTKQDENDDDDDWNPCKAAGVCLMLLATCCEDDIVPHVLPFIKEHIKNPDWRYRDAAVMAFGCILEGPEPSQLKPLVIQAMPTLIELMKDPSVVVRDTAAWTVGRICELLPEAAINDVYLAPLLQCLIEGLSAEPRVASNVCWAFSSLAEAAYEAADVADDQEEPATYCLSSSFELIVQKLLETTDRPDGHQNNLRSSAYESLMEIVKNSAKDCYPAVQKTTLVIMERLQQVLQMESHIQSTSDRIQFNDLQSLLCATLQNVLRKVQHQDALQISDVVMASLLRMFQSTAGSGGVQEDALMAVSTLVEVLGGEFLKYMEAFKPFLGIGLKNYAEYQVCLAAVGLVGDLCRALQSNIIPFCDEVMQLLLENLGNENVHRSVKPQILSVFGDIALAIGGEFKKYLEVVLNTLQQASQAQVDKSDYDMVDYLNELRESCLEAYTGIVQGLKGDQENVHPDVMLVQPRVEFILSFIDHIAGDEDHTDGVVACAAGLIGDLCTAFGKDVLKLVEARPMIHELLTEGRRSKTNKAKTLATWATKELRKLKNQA

One experiment addresses importin alpha 5 (human) (UniProt P52294). The experiment is described as follows: pull-down from human Jurkat T cell lysate, immunoblot.
Experiment [1] addresses importin beta (human) (UniProt Q14974). The experiment is described as follows: pull-down of biotinylated peptide modules from cell lysate, immunoblot.
Experiment [2] shares this target. As to the kind of experiment: pull-down from human HepG2 cell extract, immunoblot.
Experiment [3] shares this target. As to the kind of experiment: pull-down from human Jurkat T cell lysate, immunoblot.

These are yes or no findings as the source states them, for the method shown. In cells and extracts the contact can be indirect. Some binding calls cover weakened binding; strength is not graded here. For some assays here: Sequences can lack the tags named with a protein.

Regarding VQRKRQKLMP (biotin added to the amino terminus) [biotinylated N50 peptide], the binding entry with importin alpha 5 (human) was “binds”.
On to AVLLALLAP (peptide, not shown: small tags and cut ends, biotin added to the amino terminus) [biotinylated SSHR-2 peptide with solubility tag], for which, in the experiment with importin beta (human) [1], the binding entry is on record as “binds”.
AAVALLPAVLLALLAPVQRKRQKLMP (biotin added to the amino terminus) [biotinylated SN50 peptide]: the binding result with importin beta (human) [2], in the experiment with importin alpha 5 (human) and with importin beta (human) [3] was “binds” each time.
